Reference: PubChem BioAssay AID652259 (Drosophila RNAi Screening Center, 2013)
In all, the deposit lists about 22,000 reagents; this is an unselected part of those that have a named target and a result. Over the whole deposit, 233 (1.1%) were called active. 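Light values are raw, unnormalised plate reads; the ratio scores behind the reporter calls were not deposited.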 No sequences are given here. Not stated in the record: the amount of reagent, the time to read-out, the dose of the treatment.

- Test: 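Knock-downs that push a Wingless-driven reporter up or down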 (primary screen)
- System: Drosophila clone 8 imaginal disc epithelial cells
- Reagent: long dsRNA against Drosophila genes
- Challenge: pathway stimulated by co-transfected Wingless expression plasmid
- Measurement: 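Firefly luciferase from a tcf-site Wingless reporter, measured alongside co-transfected Renilla luciferase that tracks transfection; pathway stimulated by a Wingless plasmid; the firefly-to-Renilla ratio is not deposited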
- Reading the numbers: firefly reporter light: higher = more Wg reporter light, before normalisation; Renilla control light: higher = more transfected or surviving cells
- Rule for the call: 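Strong candidates differ from their plate mean by at least two out of four per-plate statistical tests; weak candidates meet just one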
- Calls: active = candidate regulator (raises or lowers reporter); inactive = not a candidate

{"predicted target": "CG5235", "amplicon": "DRSC10494", "firefly reporter light, replicate 1": 6259, "Renilla control light, replicate 1": 2908, "call": "inactive"}
{"predicted target": "St2", "amplicon": "DRSC15142", "firefly reporter light, replicate 1": 18812, "Renilla control light, replicate 1": 5808, "call": "inactive"}
{"predicted target": "St2", "amplicon": "DRSC22624", "firefly reporter light, replicate 1": 6.15e5, "firefly reporter light, replicate 2": 6.43e5, "Renilla control light, replicate 1": 2.31e5, "Renilla control light, replicate 2": 2.22e5, "call": "inactive"}
{"predicted target": "lz", "amplicon": "DRSC18790", "firefly reporter light, replicate 1": 21271, "Renilla control light, replicate 1": 10923, "call": "inactive"}
{"predicted target": "lz", "amplicon": "DRSC22302", "firefly reporter light, replicate 1": 3.34e5, "firefly reporter light, replicate 2": 4.20e5, "Renilla control light, replicate 1": 1.43e5, "Renilla control light, replicate 2": 1.67e5, "call": "inactive"}
{"predicted target": "Idh3a", "amplicon": "DRSC19446", "firefly reporter light, replicate 1": 18784, "Renilla control light, replicate 1": 10707, "call": "inactive"}
{"predicted target": "CG4520", "amplicon": "DRSC15590", "firefly reporter light, replicate 1": 19126, "Renilla control light, replicate 1": 3804, "call": "inactive"}
{"predicted target": "Pde6", "amplicon": "DRSC16401", "firefly reporter light, replicate 1": 3781, "Renilla control light, replicate 1": 1777, "call": "inactive"}
{"predicted target": "Pde6", "amplicon": "DRSC16402", "firefly reporter light, replicate 1": 15607, "Renilla control light, replicate 1": 2487, "call": "inactive"}
{"predicted target": "Pde6", "amplicon": "DRSC16403", "firefly reporter light, replicate 1": 10653, "Renilla control light, replicate 1": 2343, "call": "inactive"}
{"predicted target": "Mst98Cb", "amplicon": "DRSC16750", "firefly reporter light, replicate 1": 10228, "Renilla control light, replicate 1": 4684, "call": "inactive"}
{"predicted target": "Mst98Cb", "amplicon": "DRSC22495", "firefly reporter light, replicate 1": 7.57e5, "firefly reporter light, replicate 2": 6.77e5, "Renilla control light, replicate 1": 2.74e5, "Renilla control light, replicate 2": 9009, "call": "inactive"}
{"predicted target": "Ype", "amplicon": "DRSC20301", "firefly reporter light, replicate 1": 2855, "firefly reporter light, replicate 2": 7612, "Renilla control light, replicate 1": 1104, "Renilla control light, replicate 2": 2765, "call": "inactive"}
{"predicted target": "Rab32", "amplicon": "DRSC05146", "firefly reporter light, replicate 1": 16694, "Renilla control light, replicate 1": 8586, "call": "inactive"}
{"predicted target": "Rab32", "amplicon": "DRSC07522", "firefly reporter light, replicate 1": 10188, "Renilla control light, replicate 1": 1302, "call": "inactive"}
{"predicted target": "PolE4", "amplicon": "DRSC04105", "firefly reporter light, replicate 1": 3512, "firefly reporter light, replicate 2": 7200, "Renilla control light, replicate 1": 499, "Renilla control light, replicate 2": 2868, "call": "inactive"}
{"predicted target": "alpha-Cat", "amplicon": "DRSC11917", "firefly reporter light, replicate 1": 13018, "Renilla control light, replicate 1": 3596, "call": "inactive"}
{"predicted target": "Bcat", "amplicon": "DRSC19756", "firefly reporter light, replicate 1": 23430, "Renilla control light, replicate 1": 11396, "call": "inactive"}
{"predicted target": "Or59b", "amplicon": "DRSC04632", "firefly reporter light, replicate 1": 1861, "firefly reporter light, replicate 2": 7853, "Renilla control light, replicate 1": 749, "Renilla control light, replicate 2": 2704, "call": "inactive"}
{"predicted target": "chas", "amplicon": "DRSC19508", "firefly reporter light, replicate 1": 13654, "Renilla control light, replicate 1": 5637, "call": "inactive"}
{"predicted target": "chas", "amplicon": "DRSC19509", "firefly reporter light, replicate 1": 14336, "Renilla control light, replicate 1": 7642, "call": "inactive"}
{"predicted target": "TTLL15", "amplicon": "DRSC15543", "firefly reporter light, replicate 1": 13776, "Renilla control light, replicate 1": 2522, "call": "inactive"}
{"predicted target": "CG11158", "amplicon": "DRSC19389", "firefly reporter light, replicate 1": 16790, "Renilla control light, replicate 1": 10242, "call": "inactive"}
{"predicted target": "Sbds", "amplicon": "DRSC10992", "firefly reporter light, replicate 1": 4616, "Renilla control light, replicate 1": 2016, "call": "inactive"}
{"predicted target": "CG30281", "amplicon": "DRSC04528", "firefly reporter light, replicate 1": 11044, "Renilla control light, replicate 1": 3865, "call": "inactive"}

Ordered by “Renilla control light, replicate 1” (high to low): 3 of the entries above.
{"predicted target": "Mst98Cb", "amplicon": "DRSC22495", "firefly reporter light, replicate 1": 7.57e5, "firefly reporter light, replicate 2": 6.77e5, "Renilla control light, replicate 1": 2.74e5, "Renilla control light, replicate 2": 9009, "call": "inactive"}
{"predicted target": "Mst98Cb", "amplicon": "DRSC16750", "firefly reporter light, replicate 1": 10228, "Renilla control light, replicate 1": 4684, "call": "inactive"}
{"predicted target": "Pde6", "amplicon": "DRSC16403", "firefly reporter light, replicate 1": 10653, "Renilla control light, replicate 1": 2343, "call": "inactive"}
